Values from PubChem BioAssay AID652259 (Drosophila RNAi Screening Center, 2013)

Purpose: 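Knock-downs that push a Wingless-driven reporter up or down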 (primary screen)
Cell system: Drosophila clone 8 imaginal disc epithelial cells
Knock-down reagent: long dsRNA against Drosophila genes
Conditions: pathway stimulated by co-transfected Wingless expression plasmid
Read-out: 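Firefly luciferase from a tcf-site Wingless reporter, measured alongside co-transfected Renilla luciferase that tracks transfection; pathway stimulated by a Wingless plasmid; the firefly-to-Renilla ratio is not deposited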
Reading the numbers: firefly reporter light: higher = more Wg reporter light, before normalisation; Renilla control light: higher = more transfected or surviving cells
Hit rule: 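a knock-down is a candidate when at least two out of four statistical tests show it departing from its plate mean; one test alone signals a weak candidate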
Calls: active = candidate regulator (raises or lowers reporter); inactive = not a candidate
The deposit covers about 22,000 reagents; this is a random part of those with a known target gene and a result. Of all reagents, 233 (1.1%) were called active. 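Light values are raw, unnormalised plate reads; the ratio scores behind the reporter calls were not deposited.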 No sequences are given here. Not given: the amount of reagent, the time to read-out, the dose of the treatment.

target	amplicon	firefly reporter light, replicate 1	firefly reporter light, replicate 2	Renilla control light, replicate 1	Renilla control light, replicate 2	activity call
SmydA-7	DRSC07340	13281		3803		inactive
CG5880	DRSC15906	1395	5465	740	1938	inactive
Ugt37E1	DRSC02248	3308	7827	1430	3504	inactive
CG17834	DRSC02637	7100		1888		inactive
asf1	DRSC11324	4205		1293		inactive
CG33465	DRSC05587	24788		20754		inactive
Rrp42	DRSC07161	5378		1536		inactive
CG16956	DRSC02544	2215	5299	1045	2422	inactive
OstDelta	DRSC06980	10490		5044		inactive
CG43111	DRSC05796	13735		9431		inactive
Tbce	DRSC04897	12537		3796		inactive
Nop60B	DRSC04627	7722		2726		inactive
RPA2	DRSC03184	8101		2624		inactive
CG17292	DRSC02594	11563		5494		inactive
CG1273	DRSC08291	4759		2384		inactive
CG15019	DRSC08473	1661	10608	1309	3667	inactive
CG1738	DRSC19772	14152		8935		inactive
CG10912	DRSC06009	17600		4844		inactive
CG13676	DRSC10035	1680	7104	1556	3188	inactive
dnt	DRSC03522	5893		2592		inactive
hoip	DRSC03546	1685	3650	170	480	inactive
CG42720 (retired record)	DRSC22549	7.92e5	8.25e5	3.74e5	1.20e5	inactive
Nplp3	DRSC09944	7408		3609		inactive
ear	DRSC15675	6468		2354		inactive
CG31777	DRSC00201	15305		8051		inactive

8 of these entries in another layout.
{"target": "SmydA-7", "amplicon": "DRSC07340", "firefly reporter light, replicate 1": 13281, "Renilla control light, replicate 1": 3803, "activity call": "inactive"}
{"target": "CG5880", "amplicon": "DRSC15906", "firefly reporter light, replicate 1": 1395, "firefly reporter light, replicate 2": 5465, "Renilla control light, replicate 1": 740, "Renilla control light, replicate 2": 1938, "activity call": "inactive"}
{"target": "Ugt37E1", "amplicon": "DRSC02248", "firefly reporter light, replicate 1": 3308, "firefly reporter light, replicate 2": 7827, "Renilla control light, replicate 1": 1430, "Renilla control light, replicate 2": 3504, "activity call": "inactive"}
{"target": "CG17834", "amplicon": "DRSC02637", "firefly reporter light, replicate 1": 7100, "Renilla control light, replicate 1": 1888, "activity call": "inactive"}
{"target": "asf1", "amplicon": "DRSC11324", "firefly reporter light, replicate 1": 4205, "Renilla control light, replicate 1": 1293, "activity call": "inactive"}
{"target": "CG33465", "amplicon": "DRSC05587", "firefly reporter light, replicate 1": 24788, "Renilla control light, replicate 1": 20754, "activity call": "inactive"}
{"target": "Rrp42", "amplicon": "DRSC07161", "firefly reporter light, replicate 1": 5378, "Renilla control light, replicate 1": 1536, "activity call": "inactive"}
{"target": "CG16956", "amplicon": "DRSC02544", "firefly reporter light, replicate 1": 2215, "firefly reporter light, replicate 2": 5299, "Renilla control light, replicate 1": 1045, "Renilla control light, replicate 2": 2422, "activity call": "inactive"}

Next reagents follow:
target	amplicon	firefly reporter light, replicate 1	firefly reporter light, replicate 2	Renilla control light, replicate 1	Renilla control light, replicate 2	activity call
Mtr4	DRSC03560	8739		2374		inactive
AQP	DRSC06122	7116		2405		inactive
PCNA	DRSC07653	7318		2668		inactive
DCAF12	DRSC15475	4456		2101		inactive
Asap	DRSC06493	3176	8727	618	3149	inactive
Asap	DRSC06830	6352		1498		inactive
CG31207	DRSC21886	4.84e5	5.63e5	1.77e5	2.35e5	inactive
CG5693	DRSC02878	2428	5771	759	3168	inactive
CG34188	DRSC05549	17379		14436		inactive
Nfs1	DRSC02154	8081		1543		inactive
Arl4	DRSC17156	18789		14672		inactive
Galphas	DRSC04616	10666		4448		inactive
lncRNA:CR41601	DRSC22158	4.90e5	5.16e5	1.86e5	1.76e5	inactive
wbl	DRSC07718	8476		2353		inactive
aPKC	DRSC05515	14397		11985		inactive
aPKC	DRSC07639	5383		2301		inactive
Ndc1	DRSC15895	2825	4338	1234	1746	inactive
CG14537	DRSC02395	3178	7168	912	3653	inactive
CG1275	DRSC08294	18039		4172		inactive
ced-6	DRSC07591	3456	13940	964	4371	inactive
Xbp1	DRSC04553	4584		1793		inactive
Xbp1	DRSC21624	4.44e5	4.70e5	2.57e5	1.66e5	inactive
Vps13D	DRSC09818	5136		2112		inactive
Vps13D	DRSC09819	6439		2298		inactive
